Data reported in paper PMC3847324, “Jun dimerization protein 2 is a critical component of the Nrf2/MafK complex regulating the response to ROS homeostasis”.

Amino acid sequences for entries named in this document (tags omitted).
UniProt P97875, whole entry, stated change not applied: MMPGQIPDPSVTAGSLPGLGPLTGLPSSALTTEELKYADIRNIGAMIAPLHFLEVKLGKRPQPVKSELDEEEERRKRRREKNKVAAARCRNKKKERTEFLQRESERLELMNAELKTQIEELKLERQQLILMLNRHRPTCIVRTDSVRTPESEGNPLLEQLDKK

What was measured:
Assay in all cases: EMSA
GST-JDP2 NT102 (mouse) = GST-JDP2 NT102 (mouse) (UniProt P97875); conditions: EMSA: 5 ug GST fusion or 10 ng IVT protein, 25 C 30 min; 5% native PAGE in 0.5x TBE at 4 C; binding buffer, salt and pH not given; recombinant protein; protein details: GST
IVT-Nrf2 = target: T1, IVT-Nrf2 (UniProt Q60795); conditions: Nrf2 alone; EMSA: 5 ug GST fusion or 10 ng IVT protein, 25 C 30 min; 5% native PAGE in 0.5x TBE at 4 C; binding buffer, salt and pH not given; protein translated in vitro
T1 sequence (looked up, limits assumed): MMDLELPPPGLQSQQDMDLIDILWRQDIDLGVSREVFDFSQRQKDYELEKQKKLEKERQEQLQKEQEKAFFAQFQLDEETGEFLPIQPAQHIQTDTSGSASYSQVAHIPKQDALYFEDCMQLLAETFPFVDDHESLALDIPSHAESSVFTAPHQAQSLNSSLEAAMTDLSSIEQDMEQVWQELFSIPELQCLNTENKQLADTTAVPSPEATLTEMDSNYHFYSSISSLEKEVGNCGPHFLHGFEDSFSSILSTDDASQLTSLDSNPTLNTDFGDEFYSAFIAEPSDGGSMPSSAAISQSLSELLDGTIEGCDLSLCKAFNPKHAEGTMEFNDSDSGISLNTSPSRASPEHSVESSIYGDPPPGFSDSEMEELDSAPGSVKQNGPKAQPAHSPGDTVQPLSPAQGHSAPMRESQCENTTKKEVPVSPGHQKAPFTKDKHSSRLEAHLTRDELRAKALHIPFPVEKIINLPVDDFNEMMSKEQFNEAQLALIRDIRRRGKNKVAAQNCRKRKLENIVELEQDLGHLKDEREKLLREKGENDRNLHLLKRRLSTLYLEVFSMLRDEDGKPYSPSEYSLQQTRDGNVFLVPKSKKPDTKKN

GST-JDP2 NT70 (mouse) = GST-JDP2 NT70 (mouse) (UniProt P97875); conditions: EMSA: 5 ug GST fusion or 10 ng IVT protein, 25 C 30 min; 5% native PAGE in 0.5x TBE at 4 C; binding buffer, salt and pH not given; recombinant protein; protein details: GST
[1] = target: GST-JDP2 FL34R (ZIP mutant) (mouse) (UniProt P97875); conditions: EMSA: 5 ug GST fusion or 10 ng IVT protein, 25 C 30 min; 5% native PAGE in 0.5x TBE at 4 C; binding buffer, salt and pH not given; recombinant protein; protein details: GST

Measured: binding result

CAGTCACAGTGACTCAGCAGAATCT (double strand) [human NQO1-ARE WT]
no binding: all assays above

For at least one entry, the source does not settle the construct or the ends of the probe. A negative result means that nothing was seen under these conditions. For some of these results: Protein sequences can lack the tags named with them.
